According to patent US4740501A (priority 1985, dated 1988):
Several values for one entry are separate records, joined by “and”; a condition that tells them apart may be missing. Equal entries are not always repeated. The amount applied is not stated for every result.

System: MMTV polypeptides
Type: cell-based, mouse

With `CCOC(=O)[C@H](CCSC)NC(=O)[C@H](Cc1cccc(N(CCCl)CCCl)c1)NC(=O)[C@@H](N)Cc1ccc(F)cc1.Cl` [PTT.119, 3-(p-fluorophenyl)-L-alanyl-3-[m-bis(2-chloroethyl)aminophenyl]-L-alanyl-L-methionine ethyl ester hydrochloride] the “Percentage of Radioactivity Associated with each Polypeptide: p 8” value was 3.8, the “relative levels of the other MMTV polypeptides” value was “not affected” and the “Percentage of Radioactivity Associated with each Polypeptide: gp 37.7/33” value (hydrochloride) was 22.0 and 18.6. For the same compound, the “Percentage of Radioactivity Associated with each Polypeptide: p 17” value (hydrochloride) was 6.9 and 5.4.
